Test results reported in patent US8470874B2, “Pharmaceutical compositions comprising cannabichromene type compounds” (GW Pharma Limited, priority 2003, dated 2013).
At least one compound was matched to its structure with a doubt left.

System: C57BL6BYJ mice
Assay: tail suspension test
Format: in vivo
Details: i.p., male mice, from Fisher's PLSD of struggling
Experimental: The experiment used 112 C57BL6BYJ mice (Jackson Laboratories, Bar Harbor, Me.) which were housed in same sex groups (n=3-5) and maintained on a reversed 12 h light-dark cycle, with all testing being completed during the first 4 h of the dark phase cycle. Food and water were provided ad libitum except during behavioural testing. The subjects were six weeks old at the time of testing and consisted of groups with equal numbers of males (18-26 g) and females (15-21 g).
The substantially pure CBC extract (54.0 mg/ml in ethanol) was diluted in Tween 80 and subsequently diluted further to the correct dose with PBS (pH 7.4). The final concentration of Tween 80 was 5% for all preparations.
Imipramine (30 mg/kg) was used as an antidepressant control and diluted as per the CBC extract. Test article at doses of 0, 5, 10, 20, 40, 80 mg/kg/0.01 ml/g bodyweight were administered i.p. under sodium light to minimise exposure to light. […]
The mouse was suspended from a bar by the tail using adhesive tape so that the tip of their nose was 2 cm from the floor of the tail suspension chamber. […] The total number of movements and total amount of time spent immobile were recorded. […] A period of immobility was counted only if no movements above 350 mV were recorded for at least 1000 ms. The total amount of time spent immobile was calculated by summing the duration of the individual immobility periods. […]

With CCCCCc1cc(O)c2c(c1)OC(C)(CCC=C(C)C)C=C2 (stereo not shown) [CBC, cannabichromene] as the compound, how does the “dose producing antidepressant action” value read?
The value was 10 and 80.
